Laboratory results: PMC12582035

Tests used:
AcMYC2L2 = experiment: EMSA; settings: text names AcMYC2L1/L2, legend only L1; EMSA/Gel-Shift Kit (Beyotime), native PAGE; pH and temperature not stated; recombinant protein; protein details: His
AcMYC2L1 = experiment: EMSA; settings: EMSA/Gel-Shift Kit (Beyotime), native PAGE, pH and temperature not stated, recombinant protein, protein details: His
[1] = unlabeled competitor 1x, 10x, 50x
[2] = plus His-AcJAZ2L2 protein, which AcVSP2L1 probe not stated

## CGTTAGATTAATTCAAATGAATTTTAACCGTAGA (double strand) [AcVSP2L2pro probe]
AcMYC2L2
  binding result: binds
AcMYC2L1; plus His-AcJAZ2L2 protein
  binding result: binds more weakly
AcMYC2L1; [1]
  binding result: binds

## TTATATATAAGACACATGAAGGATCGATTTCGAC (double strand) [AcVSP2L1pro probe 2]
AcMYC2L2
  binding result: binds
AcMYC2L1; [2]
  binding result: binds more weakly
AcMYC2L1; [1]
  binding result: binds

## TGGATTTTTTTACACACGTGCTTCAAATTGTTAAAG (double strand) [AcVSP2L1pro probe 1]
AcMYC2L2
  binding result: binds
AcMYC2L1; [2]
  binding result: binds more weakly
AcMYC2L1; [1]
  binding result: binds

Construct, isoform or probe ends are uncertain for at least one entry. For part of these data: A weaker result is weaker than the reference pair of the same experiment. At least one verdict rests on a figure or table, not on a statement of the authors.
